{"source": "paper PMC13168374", "about": "“Reversible DNA condensation drives natural transformation”", "biological_target": "ComEA LL ins19aa,after,143 (Geobacillus stearothermophilus) (UniProt A0A0K9HI54)", "assay": "fluorescence polarization", "conditions": "Kd within error of ComEA, Hill >1, value in Fig. 5c only; FP: 20 mM Tris-HCl pH 7.5, 200 mM KCl, 80 nM DNA, ~20 C (spin at 20 C; read temperature not stated); optical tweezers 23 +/- 1 C; recombinant protein; residues 60-207; label: 3'-fluorescein (36-FAM) on strand 1", "note": "Construct, isoform or probe ends are uncertain for at least one entry."}
{"sequence": "GCACTGTGAATATCACTACAGCAACCTTGA (double strand) [30 bp DNA duplex]", "values": [{"measurement": "binding result", "result": "binds"}]}
